The text below walks through data of article PMC7819943, “Rice protein-binding microarrays: a tool to detect cis-acting elements near promoter regions in rice”.

Some of the results follow.

For the assay, the target named is T1, OsSMF1 (Oryza sativa, UniProt Q6ZLB0 1-436).
T1 sequence: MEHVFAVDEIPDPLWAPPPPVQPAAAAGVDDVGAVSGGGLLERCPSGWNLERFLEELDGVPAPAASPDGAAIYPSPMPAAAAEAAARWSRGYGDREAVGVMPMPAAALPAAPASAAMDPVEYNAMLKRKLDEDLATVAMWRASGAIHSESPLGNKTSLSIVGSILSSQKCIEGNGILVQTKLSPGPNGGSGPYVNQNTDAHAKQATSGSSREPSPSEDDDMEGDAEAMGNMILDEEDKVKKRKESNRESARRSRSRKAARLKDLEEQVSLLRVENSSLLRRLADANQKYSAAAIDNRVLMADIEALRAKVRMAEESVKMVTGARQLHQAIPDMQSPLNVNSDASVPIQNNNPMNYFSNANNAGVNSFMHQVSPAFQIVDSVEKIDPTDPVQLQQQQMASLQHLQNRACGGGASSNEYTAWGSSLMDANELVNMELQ
Put plainly: protein-binding microarray (RPBM); PBS, 2% BSA, 51.3 ng/ul salmon testes DNA, 50 uM zinc acetate, 200 nM TF, 25 C, 1 h; high values mean tight binding. Conditions: protein: recombinant; tags: N-terminal polyhistidine and DsRed monomer fusion (pET32a); chain copies: 2; label: CyDye5-dUTP incorporated in the synthesized complementary strand; 3' TTTTT single-stranded linker to array surface; dsDNA, one strand shown. An outline of the steps:
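The binding signal is fluorescence intensity per array feature (arbitrary units). Readings came from an Axon 4000B scanner after a washed, 2% BSA-blocked, double-stranded custom Agilent array had been incubated for 1 h at 25 °C with 200 nM protein and 50 µM zinc acetate. The protein was a Ni–NTA-purified transcription factor fused N-terminally to polyhistidine and DsRed, expressed in E. coli BL21-CodonPlus.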
Regarding “CAAGGGGAATACAATTATGTGGATTGGTGCTTAGTGTGGTCGGAGTCACCTAGTGCAG”, the binding signal was 3260 fluorescence intensity (a.u.).

For the sequence “GATGAGGCGTCCGCGTCCTCTTGTCATCCGGGTACGACTGCGGAGTCACCTAGTGCAG”, the binding signal was 3850 fluorescence intensity (a.u.). The same measure for “CACTGCTTTCACTGGAGACCAAAACTGGCTCTCTTTCACACGGAGTCACCTAGTGCAG”: 5220 fluorescence intensity (a.u.). “TAGTGGAATGTGACACATACTGATACTACGAATCTAAACACGGAGTCACCTAGTGCAG”: the binding signal was 3150 fluorescence intensity (a.u.). The same measure for “CAGCCCAGCTCACCACCCTGTCAGCTCGTTCTTCCTCCTCCGGAGTCACCTAGTGCAG”: 4070 fluorescence intensity (a.u.). For “TGAGGGTGTGGGACGACACAGATCGTAACTGGATTGATCGCGGAGTCACCTAGTGCAG” the value was 3830 fluorescence intensity (a.u.). In the case of “TGGTAACATATACCTAGCTGATGATGGCTACCATTGGAGGCGGAGTCACCTAGTGCAG”, the binding signal is 3420 fluorescence intensity (a.u.). The same measure for “GGAGAGGGGAAGTGGTGACGGTCAGTGGTGGATCCATGCACGGAGTCACCTAGTGCAG”: 3270 fluorescence intensity (a.u.).

In the case of “CCGAGGAAACAATTATTGGTGACGTAGCTAAATCTTAGGTCGGAGTCACCTAGTGCAG”, the binding signal is 6430 fluorescence intensity (a.u.).

For the sequence “CCATCGGGAGGAGCAAAGCAAACGTGGCAACAACGCTCGTCGGAGTCACCTAGTGCAG”, the binding signal is 4840 fluorescence intensity (a.u.).

Turning to “GGTGTGTTTTCTTGCATGACGGGTGTGTTTTCTCCTTAAACGGAGTCACCTAGTGCAG”, the binding signal was 5060 fluorescence intensity (a.u.). Take “TTTCTCTAATTTATTTGCACCACGTAGCGACTTAGGATAGCGGAGTCACCTAGTGCAG”: the binding signal was 3980 fluorescence intensity (a.u.). For “GGGCACGTGGAGAAACATTTCTTTCTAATCCAGCTCAACTCGGAGTCACCTAGTGCAG” the value was 3560 fluorescence intensity (a.u.); for “CAAAGAGCGATTTTGCCGACGTGGCATACAGCCATTGAACCGGAGTCACCTAGTGCAG”, 19700 fluorescence intensity (a.u.); for “CCACAAACAGGCCCTTACCCTCAACCGGCGAGAGGTGCCTCGGAGTCACCTAGTGCAG”, 21900 fluorescence intensity (a.u.). The same measure for “GGCCCTCGTAGAAGCGGCGGCATCCACGCACACACCACGCCGGAGTCACCTAGTGCAG”: 4570 fluorescence intensity (a.u.); for “GGTTTCACGCTCACGCGCGCCACGTTTGTCCCCACCCCACCGGAGTCACCTAGTGCAG”: 6020 fluorescence intensity (a.u.).

Regarding “TAGCACGTGGTGATGATCACCCAACTGTTCTTCCTGTGTGCGGAGTCACCTAGTGCAG”, the binding signal was 4330 fluorescence intensity (a.u.). For “CTTGTCGCATCTGAACGTGTCGAGTCACACCTGTGTGTTACGGAGTCACCTAGTGCAG” the value was 8330 fluorescence intensity (a.u.); for “CTAGTCGCTGACTGACGCTGCCCGCCGTGTGGCCGTGCATCGGAGTCACCTAGTGCAG”, 3700 fluorescence intensity (a.u.); for “TATAAATTAATATGTAGTATATCACTTCATAAGTTTAAATCGGAGTCACCTAGTGCAG”, 39300 fluorescence intensity (a.u.).

As to “TCCTCGCTGAGTCCGATCCTGACCGTCCGATCGTGCAACGCGGAGTCACCTAGTGCAG”, the binding signal was 3620 fluorescence intensity (a.u.). For the sequence “ATAATCCATCTGTTCAAGTAAGGTATCTAAGGAAAGCCAACGGAGTCACCTAGTGCAG”, the binding signal was 5060 fluorescence intensity (a.u.). For “CACCCTTTCCAAATGATGTTGACAAGACTGGATGACACGGCGGAGTCACCTAGTGCAG” the value was 3730 fluorescence intensity (a.u.). The same measure for “AATTAAATGGCTACATATACGTGGAGGCGAATGGTGGTTTCGGAGTCACCTAGTGCAG”: 5670 fluorescence intensity (a.u.); for “ACCCTCTATCGGGTGCAAATACGCGGAACACCAAGGACCTCGGAGTCACCTAGTGCAG”: 3400 fluorescence intensity (a.u.).

Turning to “TCCGTCGCCCTTCCAGCCGCGTTGTCTTGTTCCGATGGTGCGGAGTCACCTAGTGCAG”, the binding signal was 4200 fluorescence intensity (a.u.). For “TTTCGAAAATTAGGTTTAGCTGAGTTGCCAACTGCTTGACCGGAGTCACCTAGTGCAG” the value was 3480 fluorescence intensity (a.u.); for “CCAAAACGACCGTCATGCGTCTGTGTGCCACGTCGGCTTGCGGAGTCACCTAGTGCAG”, 23000 fluorescence intensity (a.u.); for “CCATCTCGGCCCAGCCCAATAGCCCATGTCATAGTCATTCCGGAGTCACCTAGTGCAG”, 4080 fluorescence intensity (a.u.). As for “CCTTTTATCCGCTCTACGGACGCAGTCCACGTCAGCCGACCGGAGTCACCTAGTGCAG”, the binding signal was 39200 fluorescence intensity (a.u.).

Take “ATAATCTTCAGAGATCTCCTTGCCTGAAGTGTCTTATGTTCGGAGTCACCTAGTGCAG”: the binding signal was 42500 fluorescence intensity (a.u.). The same measure for “GATCACCCCGACGCATTCTGCTTTCGTCTCCAGAGGTTCGCGGAGTCACCTAGTGCAG”: 3340 fluorescence intensity (a.u.). As to “ATTATTAGCTTGGTCACTTGTTTACTAGCTGGAATGCTGGCGGAGTCACCTAGTGCAG”, the binding signal was 3300 fluorescence intensity (a.u.).

With “GGCGGAGGAGGAAAGGGAGAGTTGTGCTGGTGGTAGGAGGCGGAGTCACCTAGTGCAG”, the binding signal is 3560 fluorescence intensity (a.u.). For “AATAAATCTCACGGACTTCCATATCTACTCCCGGTTTCTGCGGAGTCACCTAGTGCAG” the value was 3590 fluorescence intensity (a.u.).

For “AGCACTTGTGGAAATGTGACGTATTATCTGTATTTTACTACGGAGTCACCTAGTGCAG”, the binding signal is 6090 fluorescence intensity (a.u.). Regarding “CTGCCCTAGTGTGTACTAGTAGTTACTTCATCCGTTTCAGCGGAGTCACCTAGTGCAG”, the binding signal is 3180 fluorescence intensity (a.u.). Consider “TACAGTAATCCACATGTGCTAATGACGGCTTAATTAGGTTCGGAGTCACCTAGTGCAG”, for which the binding signal was 4110 fluorescence intensity (a.u.). Consider “GAGCAAGATTATGTGTTAATAAATCTTTGTGCAAGCATTCCGGAGTCACCTAGTGCAG”, for which the binding signal was 3900 fluorescence intensity (a.u.). For “TGTAATTATTATTTATTTTATTGTGATTTAATTTATCATCCGGAGTCACCTAGTGCAG” the value was 3260 fluorescence intensity (a.u.); for “CCCTTGCATCCACGCCGTCGCCGTCCCCACGTCGCCCACGCGGAGTCACCTAGTGCAG”, 3430 fluorescence intensity (a.u.).
